The list is a part of this screen's results and no random one: it is rich in T/C values a quarter to a half above the control, in often repeated tests (any T/C) and in doses without a T/C. Other doses and runs of a compound stand elsewhere. T/C gives the treated animals as a percentage of the vehicle group. Some doses have a count of surviving animals in place of a T/C: the source holds a T/C of zero for them, seemingly a mark for toxic or unscored doses. Some survivor counts are full or nearly so, which does not show that the dose was tolerated: the source hardly ever lists a survival T/C far under the control, and the zero likely stands for such cases as well. Counts of survivors are from the toxicity check (mostly the fifth day) where no day follows; animals may have died later. Schedules are NCI's codes, read here as Q, the interval in days (D) or hours (H), X, the number of doses. Some doses were run more than once; the values are given in rising order. Where survival is the endpoint, this PubChem deposit counts one and a half times the control or more as active, and values a quarter to a half above the control carry no call in these data; other NCI protocols may use other cut-offs.
Tested on: CD2F1 mice, L1210 leukemia ip, survival T/C
Test: NCI In Vivo Anticancer Drug Screen. Data for tumor model L1210 Leukemia (intraperitoneal) in CD2F1 (CDF1) mice
Conditions: higher T/C = longer survival
In short: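 Vehicle-treated tumor-bearing mice served as controls (C) for compound-treated mice (T). Reported figure is T divided by C.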

[1] = T/C endpoint: mean survival time, dose: 100.0 mg/kg/injection, schedule: Q04DX003 (ip), vehicle: saline with Tween-80
[2] = T/C endpoint: mean survival time, dose: 200.0 mg/kg/injection, schedule: Q04DX003 (ip), vehicle: saline with Tween-80
[3] = T/C endpoint: mean survival time, dose: 400.0 mg/kg/injection, schedule: Q04DX003 (ip), vehicle: saline with Tween-80
[4] = T/C endpoint: median survival time, dose: 400.0 mg/kg/injection, schedule: Q04DX002 (ip), vehicle: saline with Tween-80
[5] = T/C endpoint: mean survival time, dose: 200.0 mg/kg/injection, schedule: Q01DX009 (ip), vehicle: saline with Tween-80
[6] = T/C endpoint: mean survival time, dose: 200.0 mg/kg/injection, schedule: Q04DX002 (ip), vehicle: saline with Tween-80
[7] = T/C endpoint: mean survival time, dose: 400.0 mg/kg/injection, schedule: Q01DX009 (ip), vehicle: saline with Tween-80
[8] = T/C endpoint: mean survival time, dose: 100.0 mg/kg/injection, schedule: Q04DX002 (ip), vehicle: saline with Tween-80

C[n+]1ccc(/C=C/c2c[nH]c3ccccc23)cc1 was tested, and the survivor count [1] was 2 of 6, the survivor count [2] was 4 of 6 and the survivor count [3] was 0 of 6.

For O=C(O)CCC(=O)c1ccc(Cl)cc1, the survivor count (T/C endpoint: median survival time, dose: 50.0 mg/kg/injection, schedule: Q04DX002 (ip), vehicle: saline with Tween-80) was 3 of 3, the survivor count (T/C endpoint: median survival time, dose: 100.0 mg/kg/injection, schedule: Q04DX002 (ip), vehicle: saline with Tween-80) was 3 of 3 and the survivor count [4] was 3 of 3.

Cc1ccc2nc(-c3ccc(NC(=O)Nc4cccc(F)c4)cc3)sc2c1 was tested, and the survivor count [5] was 2 of 3.

ClC1CC[N-]CC1.ClC1CC[N-]CC1.[Cl][Pt+2]([Cl])([Cl])[Cl] was tested, and the survivor count (T/C endpoint: mean survival time, dose: 50.0 mg/kg/injection, schedule: Q01DX009 (ip), vehicle: water) was 1 of 6, the survivor count (T/C endpoint: mean survival time, dose: 100.0 mg/kg/injection, schedule: Q01DX009 (ip), vehicle: water) was 1 of 6 and the survivor count (T/C endpoint: mean survival time, dose: 200.0 mg/kg/injection, schedule: Q01DX009 (ip), vehicle: water) was 0 of 6.

In the case of CN(C)C(=S)Oc1c([N+](=O)[O-])cc([N+](=O)[O-])cc1C(C)(C)C, the survivor count [6] is reported as 0 of 3 and the survivor count (T/C endpoint: mean survival time, dose: 400.0 mg/kg/injection, schedule: Q04DX002 (ip), vehicle: saline with Tween-80) is reported as 0 of 3.

In the case of CC12CCCCC1=C/C(=N/NC(N)=O)CC2 (configuration not stated), the survivor count (T/C endpoint: mean survival time, dose: 100.0 mg/kg/injection, schedule: Q01DX009 (ip), vehicle: saline with Tween-80) is reported as 4 of 6, the survivor count [5] is reported as 0 of 6 and the survivor count [7] is reported as 0 of 6.

Oc1c(Cl)cc(Cl)cc1C=NCCSc1ccc(Cl)cc1 was tested, and the survivor count (T/C endpoint: median survival time, dose: 400.0 mg/kg/injection, schedule: Q01DX009 (ip), vehicle: Klucel (hydroxypropylcellulose) (HPC)) was 3 of 6.

For CCCCCCCCCCCC[S+](C)C, the survivor count (T/C endpoint: mean survival time, dose: 80.0 mg/kg/injection, schedule: Q04DX003 (ip), vehicle: Klucel (hydroxypropylcellulose) (HPC)) was 0 of 6.

For c1ccc2c(c1)[nH]c1c2c[n+]2c3c(cccc13)CCC2, the survivor count (T/C endpoint: mean survival time, dose: 25.0 mg/kg/injection, schedule: Q01DX001 (ip), vehicle: saline) was 3 of 6, the survivor count (T/C endpoint: mean survival time, dose: 100.0 mg/kg/injection, schedule: Q01DX001 (ip), vehicle: saline) was 0 of 6 and the survivor count (T/C endpoint: mean survival time, dose: 200.0 mg/kg/injection, schedule: Q01DX001 (ip), vehicle: saline) was 0 of 6. For the same molecule, the survivor count (T/C endpoint: mean survival time, dose: 400.0 mg/kg/injection, schedule: Q01DX001 (ip), vehicle: saline) was 0 of 6.

In the case of OCCSc1c(Cl)c(Cl)c(Cl)c(Cl)c1Cl, the survivor count [8] is reported as 3 of 3 and the survivor count [6] is reported as 3 of 3.

CCCCN=Cc1ccccc1O.CCCCN=Cc1ccccc1O.[Cr] was tested, and the T/C (T/C endpoint: mean survival time, dose: 200.0 mg/kg/injection, schedule: Q01DX001 (ip), vehicle: saline with Tween-80) was 143 % of control and the survivor count (T/C endpoint: mean survival time, dose: 400.0 mg/kg/injection, schedule: Q01DX001 (ip), vehicle: saline with Tween-80) was 0 of 6.

With COc1cc(OC)cc(C2=NNc3n[nH]c(=S)n3N2)c1 the survivor count [7] was 3 of 6.

In the case of N#CC(C(=O)O)C1CCCCC1=O (configuration not stated), the survivor count [4] is reported as 0 of 3.

With COC(=O)C1(C)CCCC2(C)C1CCC13C2CC1C1(C(C)C)OC31 (configuration not stated) the survivor count [3] was 6 of 6.

For O=C(O)/C=C/C(=O)c1ccccc1, the survivor count (T/C endpoint: mean survival time, dose: 50.0 mg/kg/injection, schedule: Q04DX003 (ip), vehicle: saline with Tween-80) was 2 of 6.

For Cc1ccccc1CS, the survivor count [7] was 0 of 6.

With O=C(O)c1ccc(CBr)cc1CBr the survivor count [1] was 2 of 6, the survivor count [2] was 0 of 6 and the survivor count [3] was 0 of 6.

O=C(Nc1ccccc1)OCCc1c2ccccc2nc2ccccc12 was tested, and the survivor count [8] was 3 of 3.

In the case of CONC(=O)c1ccccc1N=NN(C)C, the survivor count (T/C endpoint: mean survival time, dose: 75.0 mg/kg/injection, schedule: Q01DX009 (ip), vehicle: Klucel (hydroxypropylcellulose) (HPC)) is reported as 4 of 6, the survivor count (T/C endpoint: mean survival time, dose: 150.0 mg/kg/injection, schedule: Q01DX009 (ip), vehicle: Klucel (hydroxypropylcellulose) (HPC)) is reported as 0 of 6 and 1 of 6 and the survivor count (T/C endpoint: mean survival time, dose: 300.0 mg/kg/injection, schedule: Q01DX009 (ip), vehicle: Klucel (hydroxypropylcellulose) (HPC)) is reported as 0 of 6.
